Read-outs that look alike come from different tables or passages of the source. In all, about 3,300 compounds went through this assay and about 95 (3%) showed an effect of 50% or more. This is one part of the list. Square brackets hold non-standard residues; d marks the D form. Peptide text beside a SMILES is read from it. * marks the point of attachment. Sta = CC(C)C[C@H](N)[C@@H](O)CC(=O)O; Isovaleryl = CC(C)CC(=O)*
Tested on: HCoV-229E
Set-up: species or system Huh-7; HTS, protection from HCoV-229E induced cell death, luminescent cell viability (CellCounting-Lite 2.0), inhibition rate
Settings: 24 h post infection, 1 h compound pre-incubation, 10 µM, inhibitor

| SMILES | 229E Inhibition rate | 229E Inhibition rate (229E Inhibition rate, 24 h) |
| --- | --- | --- |
| Oc1cc(O)c2c(c1)O[C@H](c1ccc(O)c(O)c1)[C@H](O)[C@H]2c1c(O)cc(O)c2c1O[C@H](c1ccc(O)c(O)c1)[C@H](O)[C@H]2c1c(O)cc(O)c2c1O[C@H](c1ccc(O)c(O)c1)[C@H](O)C2 [Procyanidin C1] | 0% | – |
| COc1cccc2c1cc([N+](=O)[O-])c1c(C(=O)O)cc3c(c12)OCO3 [Aristolochic acid A] | 11.8% | – |
| C=C1C[C@@]23CC[C@H]4[C@@](C)(CCC[C@@]4(C)C(=O)O)[C@@H]2CC[C@]1(O[C@@H]1O[C@H](CO)[C@@H](O)[C@H](O)[C@H]1O[C@@H]1O[C@H](CO)[C@@H](O)[C@H](O)[C@H]1O)C3 [Steviolbioside] | 5.6% | – |
| CC1(C)CC[C@]2(C(=O)O[C@@H]3O[C@H](CO)[C@@H](O)[C@H](O)[C@H]3O)CC[C@]3(C)C(=CC[C@@H]4[C@@]5(C)CC[C@H](O[C@@H]6O[C@H](C(=O)O)[C@@H](O[C@@H]7O[C@@H](CO)[C@H](O)[C@H]7O)[C@H](O)[C@H]6O)C(C)(C)[C@@H]5CC[C@]43C)[C@@H]2C1 [Araloside A] | 12% | – |
| C/C=C/C/C=C/CCC(=O)[C@H]1O[C@H]1C(N)=O [Cerulenin] | 29.4% | – |
| C/C=C(/C)C(=O)O[C@H]1[C@@H](OC(C)=O)c2c(ccc3ccc(=O)oc23)OC1(C)C [Praeruptorin A] | 19.1% | – |
| CC(=O)Nc1ccn([C@@H]2O[C@H](CO)[C@@H](O)[C@H]2O)c(=O)n1 [N4-Acetylcytidine] | 18.2% | – |
| C=C1CC[C@@H]2[C@](C)(COC(=O)CCC(=O)O)[C@H](OC(=O)CCC(=O)O)CC[C@@]2(C)[C@@H]1/C=C/C1=CCOC1=O [Kalii Dehydrographolidi Succinas] | 6.7% | – |
| Cc1c[nH]c(=O)[nH]c1=O [Thymine] | 0% | – |
| C/C=C/SC[C@H](NC(=O)CC[C@H](N)C(=O)O)C(=O)O [γ-Glutamyl-S-1-propenyl cysteine] | 13.7% | – |
| CC(C)c1ccc(C=O)cc1 [Cuminaldehyde] | 21.2% | – |
| C[C@H](CCC(=O)O)[C@H]1CC[C@H]2[C@@H]3C(=O)C[C@@H]4C[C@H](O)CC[C@]4(C)[C@H]3C[C@H](O)[C@]12C [7-keto-Deoxycholic acid] | 13.1% | – |
| C=C1CC[C@H]2C(=C)CC[C@H]3C(=C)C(=O)O[C@@H]3[C@@H]12 [Dehydrocostus Lactone] | 29.7% | – |
| O=C(O)CCCCCCCCCCCCCCC(=O)O [Hexadecanedioic acid] | 10.9% | – |
| CN(CC(=O)O)C(=N)NP(=O)(O)O [Phosphocreatine (disodium)] | 24.1% | – |
| CC(=O)NCCc1cnc[nH]1 [N-Acetylhistamine] | 8.3% | – |

| SMILES | 229E Inhibition rate | 229E Inhibition rate (229E Inhibition rate, 24 h) |
| --- | --- | --- |
| CO[C@H]1C[C@H](O[C@H]2CC[C@@]3(C)C(=CC[C@]4(O)[C@@H]3C[C@@H](OC(=O)c3ccc(O)cc3)[C@@]3(C)[C@]4(O)CC[C@@]3(O)C(C)=O)C2)O[C@H](C)[C@H]1O[C@H]1C[C@H](OC)[C@H](O[C@H]2C[C@@H](OC)[C@H](O)[C@@H](C)O2)[C@@H](C)O1 [Qingyangshengenin A] | 29.7% | – |
| CC(=O)O[C@@H]1C(=O)C2=C(C(=O)C[C@H]3C(C)(C)C(=O)CC[C@]23C)[C@]2(C)C(=O)C[C@H]([C@H](C)CC(=O)CC(C)C(=O)O)[C@@]12C (some centres unmarked) [Ganoderic acid F] | 12% | – |
| C/C=C1\C(=O)C[C@H]2[C@@H]3CCC4=CC(=O)CC[C@]4(C)[C@H]3CC[C@]12C [Guggulsterone] | – | 12.7% |
| CC(=O)C(=O)O [Pyruvic acid] | 48.6% | – |
| Cc1ncc(CO)c(CO)c1O [Pyridoxine] | – | 14.9% |
| COc1cccc(O)c1C(=O)O [2-Hydroxy-6-methoxybenzoic acid] | 33.5% | – |
| COc1c2c(cc3oc(C)cc(=O)c13)OC(C(C)(C)O[C@@H]1O[C@H](CO)[C@@H](O)[C@H](O)[C@H]1O)C2 (some centres unmarked) [5-O-Methylvisammioside] | 6.3% | – |
| COc1cc(CO)ccc1O [Vanillyl alcohol] | 7.4% | – |
| CC1=C2C[C@H]3[C@@H](CC=C4C[C@@H](O)CC[C@@]43C)[C@@H]2CC[C@]12O[C@@H]1C[C@H](C)CN[C@H]1[C@H]2C [Cyclopamine] | 31.6% | – |
| C[C@@H]1O[C@@H](OC[C@H]2O[C@@H](Oc3cc(O)c4c(=O)cc(-c5ccc(O)cc5)oc4c3)[C@H](O[C@@H]3O[C@@H](C)[C@H](O)[C@@H](O)[C@H]3O)[C@@H](O)[C@@H]2O)[C@H](O)[C@H](O)[C@H]1O [Ligustroflavone] | 8.7% | – |
| COc1ccc(-c2cc(=O)c3ccccc3o2)cc1OC [3',4'-Dimethoxyflavone] | 0% | – |
| CC(=O)OCC(=O)[C@H]1CC[C@H]2[C@@H]3CCC4=CC(=O)CC[C@]4(C)[C@H]3CC[C@]12C [Deoxycorticosterone acetate] | 37.7% | – |
| CC(C)CC(=O)N[C@H](C(=O)N[C@H](C(=O)N[C@@H](CC(C)C)[C@@H](O)CC(=O)N[C@@H](C)C(=O)N[C@@H](CC(C)C)[C@@H](O)CC(=O)O)C(C)C)C(C)C [Pepstatin (Trifluoroacetate)] (Isovaleryl-VV[Sta]A[Sta]-OH) | – | 38.1% |
| CC(C)=CCC[C@](C)(O[C@@H]1O[C@H](CO[C@@H]2O[C@H](CO)[C@@H](O)[C@H](O)[C@H]2O)[C@@H](O)[C@H](O)[C@H]1O)[C@H]1CC[C@]2(C)[C@@H]1[C@H](O)C[C@@H]1[C@@]3(C)CC[C@H](O[C@@H]4O[C@H](CO)[C@@H](O)[C@H](O)[C@H]4O[C@@H]4O[C@H](CO)[C@@H](O)[C@H](O)[C@H]4O[C@@H]4OC[C@@H](O)[C@H](O)[C@H]4O)C(C)(C)[C@@H]3CC[C@]12C [Notoginsenoside Fa] | 0% | – |
| C[C@@H]1CCCCCCCCCCCCC(=O)C1 [Muscone] | 12.3% | – |
| C/C=C(\C)C(=O)O[C@H]1C[C@@H](OC(C)=O)[C@@]2(C(=O)OC)CO[C@H]3[C@@H](O)[C@@](C)([C@]45O[C@@]4(C)[C@H]4C[C@@H]5O[C@@H]5OC=C[C@@]54O)[C@H]4[C@]1(CO[C@]4(O)C(=O)OC)[C@@H]32 [Azadirachtin] | 39.3% | – |

Quoted at random: three compounds from above

| SMILES | 229E Inhibition rate | 229E Inhibition rate (229E Inhibition rate, 24 h) |
| --- | --- | --- |
| C=C1CC[C@H]2C(=C)CC[C@H]3C(=C)C(=O)O[C@@H]3[C@@H]12 [Dehydrocostus Lactone] | 29.7% | – |
| C=C1CC[C@@H]2[C@](C)(COC(=O)CCC(=O)O)[C@H](OC(=O)CCC(=O)O)CC[C@@]2(C)[C@@H]1/C=C/C1=CCOC1=O [Kalii Dehydrographolidi Succinas] | 6.7% | – |
| CC(=O)C(=O)O [Pyruvic acid] | 48.6% | – |
